Results reported in the supplement of paper PMC7858590.
± gives the standard deviation of the averaged measurements. Whole data set: some 3,800 compounds, median “cell shape (eccentricity) Z-score vs DMSO control” near 1.1, cut for the lowest 2% near -4.7. This is one part of the list.

test system: human monocyte-derived macrophages (M0); assay: cell shape (eccentricity) Z-score vs DMSO control; higher = more elongated, M2-like morphology; conditions: 20 µM; 24 h; macrophage state: M0 (M-CSF)

Row | Compound | cell shape (Z-score)
1 | COc1cc(OC)c(C(C)=O)c(O)c1C | 1.58
2 | COc1ccc(-c2cc(=O)c3c(O)cc(O)cc3o2)cc1 | 4.21
3 | CN1C(C)(C)CCCC1(C)C | 1.3
4 | CC1CCC2(C(=O)OC3OC(CO)C(O)C(O)C3O)CCC3(C(=O)O)C(=CCC4C5(C)CCC(O)C(C)(C)C5CCC43C)C2C1C (stereo not drawn) | -0.295 ± 2.7
5 | O=C1NC2CCc3nc4ccccc4c(=O)n3C2=Nc2ccccc21 (stereo not drawn) | 2.01 ± 1.9
6 | C=C[C@@]12COC(=O)C(=C)[C@@H]1[C@@H](O)[C@H](C(=C)C(=O)OC)[C@@H](O)C2 | 0.752 ± 1.1
7 | COc1cc(/C=C\C(=O)O)cc(OC)c1OC | 3.06
8 | COc1cc2cc(Oc3ccc4ccc(=O)oc4c3)c(=O)oc2cc1O | 2.63
9 | CN1CCC(=C2c3ccccc3Sc3ccccc32)CC1 | -2.28
10 | NC(Cc1ccc(F)cc1)C(=O)O (stereo not drawn) | 1.9
11 | N#C/C(=C\c1ccc(-c2cc(Cl)ccc2Cl)o1)C(=O)Nc1cccc2ncccc12 | 3.94
12 | COc1c2ccoc2c(OC)c2oc(=O)ccc12 | 3.27
13 | COc1cc(C2c3c(cc(OC)c(O)c3OC)CC(CO)C2CO[C@@H]2O[C@H](CO)[C@@H](O)[C@H](O)[C@H]2O)cc(OC)c1O (stereo partly drawn) | -0.312
14 | S=C(NCCCc1c[nH]cn1)NCCCN(Cc1ccc(Cl)c(Cl)c1)c1ccc(Br)cn1 | -2.3
15 | COc1ccc(Cn2ccc3ccc(C(=O)NO)cc32)cc1 | 2.12
16 | CC(Nc1nc(N2CCCC2)nc2ccccc12)c1ccccc1 (stereo not drawn) | -7.72
17 | C=C(CC/C=C(\C)C(=O)O)C1(O)CC=C(C)CC1 (stereo not drawn) | 1
18 | Cc1cc(O)cc2c(=O)oc(CC(C)O)cc12 (stereo not drawn) | 1.58
19 | O=C(NC(Cc1cc(=O)[nH]c2ccccc12)C(=O)O)c1ccc(Cl)cc1 (stereo not drawn) | 2.97
20 | Cc1ccc(-n2nc(C(C)(C)C)cc2NC(=O)Nc2ccc(OCCN3CCOCC3)c3ccccc23)cc1 | 0.227
21 | C=C1C[C@@]23CCC4[C@](C)(C(=O)O)CCC[C@@]4(C)[C@]2(O)CCC1C3 (stereo partly drawn) | 1.15
22 | O=C1NCCN1c1ncc([N+](=O)[O-])s1 | 2.77
23 | CC(=O)Nc1ccccc1 | 0.211

A stretch from the list above:
Row | Compound | cell shape (Z-score)
8 | COc1cc2cc(Oc3ccc4ccc(=O)oc4c3)c(=O)oc2cc1O | 2.63
9 | CN1CCC(=C2c3ccccc3Sc3ccccc32)CC1 | -2.28
10 | NC(Cc1ccc(F)cc1)C(=O)O (stereo not drawn) | 1.9
11 | N#C/C(=C\c1ccc(-c2cc(Cl)ccc2Cl)o1)C(=O)Nc1cccc2ncccc12 | 3.94

Additional compounds follow:

Row | Compound | cell shape (Z-score)
24 | O=C(O)COc1ccc(OCCNC[C@@H](O)COc2ccccc2)cc1 | 0.185
25 | CC1(C)O[C@@H]2CC3C4CCC5=CC(=O)C=C[C@]5(C)[C@@]4(F)[C@@H](O)C[C@]3(C)[C@]2(C(=O)CO)O1 (stereo partly drawn) | -2.57
26 | C#C[C@]1(O)CCC2C3CCc4cc(O)ccc4C3CC[C@@]21C (stereo partly drawn) | 0.967
27 | COc1ccc(NC(=O)c2ccc(-c3ccc(-c4noc(C)n4)cc3C)cc2)cc1OCCN(C)C | -2.7
28 | COc1ccc2[nH]c([S@@](=O)Cc3ncc(C)c(OC)c3C)nc2c1 | 1.92
29 | Cc1ccc(O)c(N=Nc2ccccc2)n1 | -7.89
30 | CC(C)(C)NC[C@@H](O)COc1nsnc1N1CCOCC1 | -0.952
31 | O=C1CC2(CCCC2)CC(=O)N1CCCCN1CCN(c2ncccn2)CC1 | 1.42
32 | O=C(/C=C/c1ccccc1)c1ccc(O[C@@H]2O[C@H](CO)[C@@H](O)[C@H](O)[C@H]2O)cc1O | 3.01
33 | CCC[C@@H](O)[C@H](O)[C@@H]1CC(OC)=CC(=O)O1 | 2.06
34 | CC1CCCC2OC2C(=O)c2c(O)cc(O)cc2CC(=O)O1 (stereo not drawn) | 0.58 ± 1.3
35 | C[C@]12CCC3c4ccc(O)cc4CCC3C1CC[C@@H]2O (stereo partly drawn) | 2.56
36 | O=C1NCc2c1c1c3ccccc3[nH]c1c1[nH]c3ccccc3c21 | 0.865
37 | COc1cc2nccc(Oc3ccc(NC(=O)C4(C(=O)Nc5ccc(F)cc5)CC4)cc3)c2cc1OC | 3.17 ± 3.5
38 | N#CC[C@H](C1CCCC1)n1cc(-c2ncnc3[nH]ccc23)cn1 | 10.4 ± 1.8
39 | COc1ccccc1N1CCN(CC(C(=O)NC(C)(C)C)c2ccccc2)CC1 (stereo not drawn) | 0.978
40 | CCCc1cc(=O)[nH]c(=S)[nH]1 | 1.43
41 | Nc1nc(OCc2ccccc2)c2[nH]cnc2n1 | 0.888
42 | O=c1cc(-c2ccc(O)cc2)oc2cc(O)cc(O)c12 | 6.7
43 | CC(C)(Sc1cc(C(C)(C)C)c(O)c(C(C)(C)C)c1)Sc1cc(C(C)(C)C)c(O)c(C(C)(C)C)c1 | 2.42
44 | Nc1nc(N)c2nc(-c3cccc(O)c3)c(-c3cccc(O)c3)nc2n1 | 5.89
45 | COC(=O)c1cc(CN2CCN(C(=N)N)CC2)cc(C(=O)N2CCN(C(=O)c3ccc(C(=N)N)cc3)CC2)c1 | 0.988
46 | O=C(O)c1cc(O)c2ccc(Cl)cc2n1 | 1.76

Row | Compound | cell shape (Z-score)
47 | Cc1ccc(C=C2CNCC(=Cc3ccc(C)cc3)C2=O)cc1 | -0.8
48 | CCc1ccccc1NC(=O)CSC(=O)NNC(=O)[C@@H](Cc1c[nH]c2ccccc12)NC(=O)OC(C)(C)C | 3.78
49 | COc1cc(O[C@@H]2O[C@H](COC3OCC(O)C(O)C3O)[C@@H](O)[C@H](O)[C@H]2O)cc(OC)c1OC (stereo partly drawn) | 2.18
50 | CC(=O)Nc1cc2ccccc2oc1=O | -1.02
51 | CCN(CC)CCC(=O)N1c2ccccc2Sc2ccc(Cl)cc21 | -0.319
52 | CCC(C)N(C)C(=O)c1cc2ccccc2c(-c2ccccc2Cl)n1 (stereo not drawn) | -0.00854
53 | CC(=O)OC(CCCCCCCCCC(C)O)Cc1cc(O)cc(O)c1 (stereo not drawn) | -0.554
54 | CCOc1ccc2nc(S(N)(=O)=O)sc2c1 | 2.05
55 | O=C(O)c1cc(/N=N/c2ccc(S(=O)(=O)Nc3ccccn3)cc2)ccc1O | 0.855
56 | CS(=O)(=O)c1ccc(C2=C(c3ccccc3)C(=O)OC2)cc1 | 2.97
57 | CC1(C)O[C@@H]2CC3C4CCC5=CC(=O)C=C[C@]5(C)C4[C@@H](O)C[C@]3(C)[C@]2(C(=O)CO)O1 (stereo partly drawn) | -2.99
58 | CCn1cc(C(=O)O)c(=O)c2cnc(N3CCCC3)nc21 | 1
59 | O=C(O)/C=C/C=C/c1ccccc1 | 0.396
60 | CC(C)(C=O)Cc1cc(C(C)(C)C)c(O)c(C(C)(C)C)c1 | 3.85
61 | COc1ccc(OC)c(-c2nnc3n2N=C(c2ccc(OC)c(OC)c2)CS3)c1 | 16.2
62 | CN(C/C=C/C#CC(C)(C)C)Cc1cccc2ccccc12 | 2.26
63 | Cc1cc(C)c(/C=C2\C(=O)Nc3ccccc32)[nH]1 | 2.58
64 | N#C/C(=C\c1ccc(O)c(O)c1)C(=O)Nc1ccccc1 | 0.369
65 | NCCNC(=O)c1ccc(Cl)cn1 | -0.702
66 | N#Cc1cc(I)c(O)c([N+](=O)[O-])c1 | 0.813
67 | CCOC(=O)C1=C(COCCN)NC(C)=C(C(=O)OC)C1c1ccccc1Cl (stereo not drawn) | 0.616
68 | COC(=O)c1cc(O)c(C(=O)c2c(O)cccc2C(=O)O)c(O)c1 | -1.89
